Measured values reported in patent US20100120884A1, “USE OF DITHIINE-TETRACARBOXIMIDES FOR CONTROLLING PHYTOPATHOGENIC FUNGI” (priority 2008, published 2010).
Some entries share one result that the patent states for a list of compounds.

Key:
Assay type in all cases: in vivo
Phytophthora infestans = conditions: tomato, protective spray, 250 ppm active substance, evaluation 3 days after inoculation
Plasmopara viticola = experiment: Plasmopara test (grapevine)/protective; conditions: protective spray, 250 ppm active substance, evaluation 6 days after inoculation
Alternaria solani = experiment: Alternaria test (tomato)/protective; conditions: protective spray, 250 ppm active substance, evaluation 3 days after inoculation
Botrytis cinerea = experiment: Botrytis test (cucumber)/protective; conditions: protective spray, 500 ppm active substance, evaluation 5-6 days after inoculation
Venturia inaequalis = experiment: Venturia test (apple)/protective; conditions: protective spray, 250 ppm active substance, evaluation 10 days after inoculation

Measured: efficacy

Cn1c(=O)c2sc3c(=O)n(C)c(=O)c3sc2c1=O [Compound 1, 2,6-Dimethyl-1H,5H-[1,4]dithiino[2,3-c:5,6-c′]dipyrrole-1,3,5,7(2H,6H)-tetrone]
≥ 70%: all assays above

CCn1c(=O)c2sc3c(=O)n(CC)c(=O)c3sc2c1=O [Compound 2, 2,6-Diethyl-1H,5H-[1,4]dithiino[2,3-c:5,6-c′]dipyrrole-1,3,5,7(2H,6H)-tetrone]
≥ 70%: all assays above

CCCn1c(=O)c2sc3c(=O)n(CCC)c(=O)c3sc2c1=O [Compound 3, 2,6-Dipropyl-1H,5H-[1,4]dithiino[2,3-c:5,6-c′]dipyrrole-1,3,5,7(2H,6H)-tetrone]
≥ 70%: all assays above
